{"source": "PubChem BioAssay AID1053208 (Peter MacCallum Cancer Centre, 2014)", "aim": "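Genes whose silencing cuts survival of bone tumour cells only with doxorubicin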 (primary screen)", "cell system": "mouse osteosarcoma cells, early-passage culture from an engineered mouse model of fibroblastic bone tumour", "reagent": "siRNA pool against mouse genes, 40 nM", "duration": "about 120 h (48 h before drug, then 72 h with drug)", "treatment": "doxorubicin 100 nM for 72 h, roughly 30-40% inhibitory dose", "read-out": "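Viability read as ATP luminescence after 72 h of 100 nM doxorubicin or none, duplicate wells averaged, scaled to non-targeting siRNA, then expressed as robust z-scores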", "direction": "viability z-score with doxorubicin: higher = more viable cells under doxorubicin; viability z-score without drug: higher = more viable cells with knock-down alone", "call rule": "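a pool counts as active when its viability z-score with doxorubicin is -2 or below and its z-score without drug lies between -2 and 2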", "note": "Here is one part, drawn at random, of about 17,000 reagents tested. Of all reagents, 788 (4.7%) got an active call. 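Calls rest on z-score classes alone; an extra cut-off of viability at most 70% of control was not applied to them.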 Not all columns of the deposit are shown."}
{"gene": "Prkg2", "combined z-score class": "high cell count with doxorubicin only", "viability z-score with doxorubicin": 2.25, "viability z-score without drug": -1.35, "Outcome": "inactive"}
{"gene": "Sstr4", "combined z-score class": "no change with or without drug", "viability z-score with doxorubicin": 1.57, "viability z-score without drug": -0.17, "Outcome": "inactive"}
{"gene": "Sv2a", "combined z-score class": "no change with or without drug", "viability z-score with doxorubicin": 0.34, "viability z-score without drug": 0.51, "Outcome": "inactive"}
{"gene": "Manea", "combined z-score class": "low cell count without drug only", "viability z-score with doxorubicin": -0.79, "viability z-score without drug": -2.19, "Outcome": "inactive"}
{"gene": "Hycc2", "combined z-score class": "no change with or without drug", "viability z-score with doxorubicin": -0.67, "viability z-score without drug": -0.51, "Outcome": "inactive"}
{"gene": "Pik3r4", "combined z-score class": "no change with or without drug", "viability z-score with doxorubicin": 0, "viability z-score without drug": 0.17, "Outcome": "inactive"}
{"gene": "Trex2", "combined z-score class": "no change with or without drug", "viability z-score with doxorubicin": -0.22, "viability z-score without drug": 1.18, "Outcome": "inactive"}
{"gene": "Nr0b2", "combined z-score class": "no change with or without drug", "viability z-score with doxorubicin": 0.22, "viability z-score without drug": -0.17, "Outcome": "inactive"}
{"gene": "Nxpe4", "combined z-score class": "no change with or without drug", "viability z-score with doxorubicin": -0.22, "viability z-score without drug": -0.17, "Outcome": "inactive"}
{"gene": "Or5w10", "combined z-score class": "no change with or without drug", "viability z-score with doxorubicin": 1.35, "viability z-score without drug": 0.17, "Outcome": "inactive"}
{"gene": "Trim3", "combined z-score class": "high cell count with and without drug", "viability z-score with doxorubicin": 3.04, "viability z-score without drug": 3.2, "Outcome": "inactive"}
{"gene": "Sec22b", "combined z-score class": "no change with or without drug", "viability z-score with doxorubicin": -0.67, "viability z-score without drug": -1.18, "Outcome": "inactive"}
{"gene": "Magohb", "combined z-score class": "no change with or without drug", "viability z-score with doxorubicin": 0.45, "viability z-score without drug": 0.17, "Outcome": "inactive"}
{"gene": "Stat3", "combined z-score class": "no change with or without drug", "viability z-score with doxorubicin": 0.34, "viability z-score without drug": -0.17, "Outcome": "inactive"}
{"gene": "Cirsr", "combined z-score class": "no change with or without drug", "viability z-score with doxorubicin": 0.11, "viability z-score without drug": 0.84, "Outcome": "inactive"}
{"gene": "Hs2st1", "combined z-score class": "high cell count with doxorubicin only", "viability z-score with doxorubicin": 2.25, "viability z-score without drug": 1.52, "Outcome": "inactive"}
{"gene": "Lsm7", "combined z-score class": "no change with or without drug", "viability z-score with doxorubicin": 0.79, "viability z-score without drug": -0.17, "Outcome": "inactive"}
{"gene": "Fbxw26", "combined z-score class": "no change with or without drug", "viability z-score with doxorubicin": -0.45, "viability z-score without drug": 0.84, "Outcome": "inactive"}
{"gene": "Ubap2l", "combined z-score class": "no change with or without drug", "viability z-score with doxorubicin": -1.01, "viability z-score without drug": -0.84, "Outcome": "inactive"}
{"gene": "Ext2", "combined z-score class": "no change with or without drug", "viability z-score with doxorubicin": -0.67, "viability z-score without drug": -0.17, "Outcome": "inactive"}
{"gene": "Ano10", "combined z-score class": "no change with or without drug", "viability z-score with doxorubicin": -0.45, "viability z-score without drug": 0.67, "Outcome": "inactive"}
{"gene": "Defb38", "combined z-score class": "no change with or without drug", "viability z-score with doxorubicin": 1.24, "viability z-score without drug": -1.01, "Outcome": "inactive"}
{"gene": "Or7g17", "combined z-score class": "no change with or without drug", "viability z-score with doxorubicin": -0.9, "viability z-score without drug": 0.34, "Outcome": "inactive"}
{"gene": "Mgme1", "combined z-score class": "no change with or without drug", "viability z-score with doxorubicin": 0.56, "viability z-score without drug": 0.17, "Outcome": "inactive"}
{"gene": "C130026L21Rik", "combined z-score class": "no change with or without drug", "viability z-score with doxorubicin": 0.45, "viability z-score without drug": -0.17, "Outcome": "inactive"}
{"gene": "Ggt7", "combined z-score class": "no change with or without drug", "viability z-score with doxorubicin": 1.57, "viability z-score without drug": 1.18, "Outcome": "inactive"}
{"gene": "Cd276", "combined z-score class": "no change with or without drug", "viability z-score with doxorubicin": 1.35, "viability z-score without drug": 1.52, "Outcome": "inactive"}
{"gene": "Defa1", "combined z-score class": "no change with or without drug", "viability z-score with doxorubicin": 0.22, "viability z-score without drug": 0.84, "Outcome": "inactive"}
{"gene": "Ppp3cc", "combined z-score class": "no change with or without drug", "viability z-score with doxorubicin": 1.35, "viability z-score without drug": -0.17, "Outcome": "inactive"}
{"gene": "Or1j10", "combined z-score class": "low cell count with doxorubicin only", "viability z-score with doxorubicin": -2.02, "viability z-score without drug": 0.17, "Outcome": "active"}
{"gene": "Smarca1", "combined z-score class": "no change with or without drug", "viability z-score with doxorubicin": 0.67, "viability z-score without drug": 0.17, "Outcome": "inactive"}
{"gene": "Ercc5", "combined z-score class": "no change with or without drug", "viability z-score with doxorubicin": 1.12, "viability z-score without drug": 0.84, "Outcome": "inactive"}
{"gene": "Cryba4", "combined z-score class": "no change with or without drug", "viability z-score with doxorubicin": -1.57, "viability z-score without drug": -0.84, "Outcome": "inactive"}
{"gene": "1810055G02Rik", "combined z-score class": "high cell count without drug only", "viability z-score with doxorubicin": 1.46, "viability z-score without drug": 2.02, "Outcome": "inactive"}
{"gene": "Prph2", "combined z-score class": "no change with or without drug", "viability z-score with doxorubicin": -1.57, "viability z-score without drug": -1.69, "Outcome": "inactive"}
{"gene": "B3gnt9", "combined z-score class": "no change with or without drug", "viability z-score with doxorubicin": -0.79, "viability z-score without drug": -0.17, "Outcome": "inactive"}
